Results taken from paper PMC7862700.
Only a part is listed here, and it is no random draw. For some of these results: At the low end of the ranking the order means little. This is one part of the list. For some of these results: The exact form of the protein is not confirmed.

Sequences of proteins named here, by UniProt entry; tags and fusion partners are left off. A change or cut given only in a name is not applied to a line headed by its entry.
UniProt P50549: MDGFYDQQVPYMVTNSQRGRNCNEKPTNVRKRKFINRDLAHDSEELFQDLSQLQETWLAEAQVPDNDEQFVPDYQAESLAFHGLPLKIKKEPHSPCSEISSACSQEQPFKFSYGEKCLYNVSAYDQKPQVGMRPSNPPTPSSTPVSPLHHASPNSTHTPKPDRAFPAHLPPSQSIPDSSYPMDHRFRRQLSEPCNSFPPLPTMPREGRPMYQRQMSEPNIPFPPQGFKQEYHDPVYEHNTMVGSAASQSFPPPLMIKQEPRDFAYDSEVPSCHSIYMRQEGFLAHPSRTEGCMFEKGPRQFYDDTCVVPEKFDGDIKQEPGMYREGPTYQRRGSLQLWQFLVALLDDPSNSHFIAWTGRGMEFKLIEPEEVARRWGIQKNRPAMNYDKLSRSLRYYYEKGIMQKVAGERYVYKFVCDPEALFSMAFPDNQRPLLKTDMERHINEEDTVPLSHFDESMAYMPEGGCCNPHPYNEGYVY
UniProt P32519: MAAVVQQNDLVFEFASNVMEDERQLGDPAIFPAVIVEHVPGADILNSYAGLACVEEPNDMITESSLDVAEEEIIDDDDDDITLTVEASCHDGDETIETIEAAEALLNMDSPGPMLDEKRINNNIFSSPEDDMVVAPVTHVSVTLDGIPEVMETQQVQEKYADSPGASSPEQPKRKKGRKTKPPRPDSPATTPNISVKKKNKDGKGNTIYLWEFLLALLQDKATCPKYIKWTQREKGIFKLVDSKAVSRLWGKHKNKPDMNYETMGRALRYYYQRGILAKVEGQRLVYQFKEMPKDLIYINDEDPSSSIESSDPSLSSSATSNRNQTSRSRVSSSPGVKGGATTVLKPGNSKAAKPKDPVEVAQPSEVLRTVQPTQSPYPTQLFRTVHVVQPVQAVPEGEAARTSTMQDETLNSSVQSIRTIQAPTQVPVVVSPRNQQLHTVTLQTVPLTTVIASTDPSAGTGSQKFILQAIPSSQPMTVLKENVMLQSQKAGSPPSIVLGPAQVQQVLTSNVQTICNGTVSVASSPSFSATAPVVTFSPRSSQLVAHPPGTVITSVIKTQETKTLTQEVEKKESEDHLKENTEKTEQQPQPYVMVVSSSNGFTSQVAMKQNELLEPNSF

Assays:
Test in all cases: DAPPL (digital affinity profiling via proximity ligation, sequencing)
Conditions in all cases: 10 mM Tris-HCl pH 7.5, 50 mM NaCl, 1 mM DTT, 4% glycerol, room temperature, 30 min; GST-TFs on glutathione beads, 16-mer random dsDNA library, 0.1% …; high values mean tight binding; double strand, one strand shown; scale: fold enrichment (6-mer frequency, TF over GST control)
ELK4 = biological target: T1, ELK4 (UniProt P28324-2)
T1 sequence: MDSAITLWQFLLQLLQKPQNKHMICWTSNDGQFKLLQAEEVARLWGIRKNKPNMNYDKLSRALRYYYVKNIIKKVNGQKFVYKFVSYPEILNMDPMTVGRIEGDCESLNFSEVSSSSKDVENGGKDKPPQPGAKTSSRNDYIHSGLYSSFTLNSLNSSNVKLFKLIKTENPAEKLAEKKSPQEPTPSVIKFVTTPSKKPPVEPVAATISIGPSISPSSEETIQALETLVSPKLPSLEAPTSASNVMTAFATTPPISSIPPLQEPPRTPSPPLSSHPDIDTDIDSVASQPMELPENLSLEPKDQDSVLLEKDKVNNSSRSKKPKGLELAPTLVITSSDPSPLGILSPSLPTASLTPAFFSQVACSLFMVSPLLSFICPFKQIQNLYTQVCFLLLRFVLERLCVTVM

ETV4 = biological target: T2, ETV4 (UniProt P43268)
T2 sequence: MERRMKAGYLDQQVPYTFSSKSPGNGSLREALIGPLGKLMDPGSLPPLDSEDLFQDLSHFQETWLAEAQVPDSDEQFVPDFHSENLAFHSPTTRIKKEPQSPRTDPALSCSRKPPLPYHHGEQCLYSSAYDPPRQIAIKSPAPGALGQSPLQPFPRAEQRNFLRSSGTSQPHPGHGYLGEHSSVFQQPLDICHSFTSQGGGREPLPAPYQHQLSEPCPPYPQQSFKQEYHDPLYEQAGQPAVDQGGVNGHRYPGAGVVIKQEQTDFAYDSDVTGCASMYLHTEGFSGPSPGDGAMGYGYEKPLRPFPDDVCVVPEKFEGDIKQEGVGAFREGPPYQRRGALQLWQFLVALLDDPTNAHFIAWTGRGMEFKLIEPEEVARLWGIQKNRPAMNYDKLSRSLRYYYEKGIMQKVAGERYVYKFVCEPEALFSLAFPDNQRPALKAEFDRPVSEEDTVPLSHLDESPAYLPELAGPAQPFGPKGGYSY

ERG = biological target: T3, ERG (UniProt P11308)
T3 sequence: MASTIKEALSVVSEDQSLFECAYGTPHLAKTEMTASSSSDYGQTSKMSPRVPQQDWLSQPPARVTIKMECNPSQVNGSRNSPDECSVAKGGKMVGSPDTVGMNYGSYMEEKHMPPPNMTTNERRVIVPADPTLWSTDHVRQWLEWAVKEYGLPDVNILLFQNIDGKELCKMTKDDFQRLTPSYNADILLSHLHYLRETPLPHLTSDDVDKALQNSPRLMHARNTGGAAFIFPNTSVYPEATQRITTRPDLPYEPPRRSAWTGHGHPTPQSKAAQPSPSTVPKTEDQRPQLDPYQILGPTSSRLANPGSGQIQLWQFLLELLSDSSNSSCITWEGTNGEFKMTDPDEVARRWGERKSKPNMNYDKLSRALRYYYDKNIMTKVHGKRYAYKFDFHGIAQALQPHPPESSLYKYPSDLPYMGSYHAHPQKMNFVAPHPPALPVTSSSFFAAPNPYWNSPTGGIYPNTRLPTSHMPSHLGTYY

ETV1 = ETV1 (UniProt P50549)
ELF1 = ELF1 (UniProt P32519)
ERF = biological target: T4, ERF (UniProt P50548)
T4 sequence: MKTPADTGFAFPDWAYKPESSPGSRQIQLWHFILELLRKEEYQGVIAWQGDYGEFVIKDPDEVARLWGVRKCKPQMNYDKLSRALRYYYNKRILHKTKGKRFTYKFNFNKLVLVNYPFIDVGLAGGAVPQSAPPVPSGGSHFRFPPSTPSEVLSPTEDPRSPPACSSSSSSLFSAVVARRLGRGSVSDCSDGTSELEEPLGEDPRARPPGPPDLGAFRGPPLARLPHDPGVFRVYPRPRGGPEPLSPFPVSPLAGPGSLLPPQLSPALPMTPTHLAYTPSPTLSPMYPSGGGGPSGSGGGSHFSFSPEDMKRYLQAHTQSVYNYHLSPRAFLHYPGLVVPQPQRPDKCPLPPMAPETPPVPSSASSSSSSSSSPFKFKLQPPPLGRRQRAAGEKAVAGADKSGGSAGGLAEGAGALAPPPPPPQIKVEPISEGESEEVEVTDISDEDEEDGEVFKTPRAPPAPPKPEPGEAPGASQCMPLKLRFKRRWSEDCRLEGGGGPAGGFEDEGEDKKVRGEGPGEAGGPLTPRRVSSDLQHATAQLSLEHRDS

Row | Sequence | binding signal (ELK4) | binding signal (ETV4) | binding signal (ERG) | binding signal (ETV1) | binding signal (ELF1) | binding signal (ERF)
1 | CGGTTC | 1.29 | 1.38 | – | – | – | –
2 | ATTCGC | 1.1 | 1.19 | – | – | – | –
3 | CATAGC | 0.922 | 0.965 | 0.941 | – | – | –
4 | CTGACG | 1.11 | 0.974 | 1.06 | – | – | –
5 | CTACAG | 1.07 | 1.12 | 1.03 | – | – | –
6 | TTAGCC | 0.97 | 1.03 | 0.952 | – | – | –
7 | ATAGGC | 0.935 | 0.994 | 1.01 | – | – | –
8 | GCTTAC | 1.1 | 1.18 | – | – | – | –
9 | CCCTTG | 1.2 | 1.25 | 1.23 | – | – | –
10 | GCTCCG | 1.33 | 1.45 | – | – | – | –
11 | TTTGAT | 1.2 | 1.39 | 1.3 | – | – | –
12 | AGCGAT | 1.07 | 1.08 | – | – | – | –
13 | GCCTGA | 1.07 | 1.04 | 0.971 | – | – | –
14 | TTTAAC | 1.13 | 1.08 | – | – | – | –
15 | TTACCT | 1.32 | 1.26 | 1.17 | – | – | –
16 | TAGCAG | 0.989 | 1.09 | 1.11 | – | – | –
17 | CGACAT | 1.3 | 1.26 | 1.31 | – | – | –
18 | CGCACA | 0.999 | 1.01 | 1.02 | – | – | –
19 | AACACC | 1.13 | 1.09 | 1.15 | – | – | –
20 | CTCGCG | 1.59 | 1.57 | 1.42 | – | – | –
21 | CCACAT | 1.28 | 1.24 | – | – | – | –

Row | Sequence | binding signal (ELK4) | binding signal (ETV4) | binding signal (ERG) | binding signal (ETV1) | binding signal (ELF1) | binding signal (ERF)
22 | GACCGG | 0.893 | 1.21 | 1.31 | – | – | –
23 | CAATGA | 1.12 | 1.01 | 1.03 | – | – | –
24 | CATACG | 1.07 | 1.07 | 1.06 | – | – | –
25 | TTTGGA | 1.14 | 1.18 | – | – | – | –
26 | TTTAAT | 1.35 | 1.18 | – | – | – | –
27 | CCAATT | 1.09 | 1.24 | – | – | – | –
28 | CGTACG | 0.971 | 1.03 | 0.997 | – | – | –
29 | CATTGT | 1.17 | 1.15 | 1.12 | – | – | –
30 | TAAAAA | 1.34 | 1.23 | 1.26 | – | – | –
31 | ATAAGC | 0.981 | 1.02 | 1.08 | – | – | –
32 | TGTTGT | 1.24 | 1.08 | – | – | – | –
33 | CCGGTC | 1.18 | 1.22 | – | – | – | –
34 | GCTGAC | 1.05 | 1.09 | 0.988 | – | – | –
35 | AACTAC | 1.32 | 1.53 | – | – | – | –
36 | TAGACT | 0.856 | 1.03 | 1.05 | – | – | –
37 | AGTGTT | 1.08 | 1.07 | 1.15 | – | – | –
38 | GCTTCC | 2.98 | 3.89 | – | – | – | –
39 | GGTTTG | 1.26 | 1.13 | – | – | – | –
40 | AATCAC | 1.11 | 1.09 | 1.08 | – | – | –
41 | CACCCA | 1.04 | 1.02 | 0.998 | 0.99 | – | –
42 | CCTGCC | 1.14 | 1.32 | 1.3 | 1.26 | – | –

4 records picked at random from the list so far:
Row | Sequence | binding signal (ELK4) | binding signal (ETV4) | binding signal (ERG) | binding signal (ETV1) | binding signal (ELF1) | binding signal (ERF)
26 | TTTAAT | 1.35 | 1.18 | – | – | – | –
2 | ATTCGC | 1.1 | 1.19 | – | – | – | –
30 | TAAAAA | 1.34 | 1.23 | 1.26 | – | – | –
18 | CGCACA | 0.999 | 1.01 | 1.02 | – | – | –

(continued)

Row | Sequence | binding signal (ELK4) | binding signal (ETV4) | binding signal (ERG) | binding signal (ETV1) | binding signal (ELF1) | binding signal (ERF)
43 | GGATGG | 0.911 | 1.07 | 0.996 | – | – | –
44 | ACGCCG | 0.961 | 1.15 | 1.02 | – | – | –
45 | TTCCTA | 1.52 | 1.63 | 1.78 | – | – | –
46 | CAGGAA | 1.37 | 1.56 | 1.83 | – | – | –
47 | AAGTAG | 1.06 | 1.23 | 1.24 | – | – | –
48 | GATGGG | 1.01 | 1 | 0.998 | – | – | –
49 | GCCCCC | 1.18 | 1.18 | 1.03 | – | – | –
50 | CATCAA | 0.94 | 1.01 | 0.939 | – | – | –
51 | CAATTT | 1.31 | 1.42 | 1.43 | – | – | –
52 | AACCGC | 0.981 | 1.05 | 1.09 | – | – | –
53 | CGGCCC | 0.97 | 0.925 | 0.903 | 0.87 | – | –
54 | CCGGAC | 1.15 | 1.7 | 1.74 | – | – | –
55 | TGCGGC | 0.935 | 1.06 | 0.951 | – | – | –
56 | TAACCG | 0.987 | 1.03 | 1.06 | – | – | –
57 | TTTTAG | 1.1 | 1.18 | 1.19 | 1.19 | – | –
58 | ATAAAA | 1.17 | 1.12 | 1.09 | – | – | –
59 | GCTCTC | 1.56 | 1.46 | 1.42 | – | – | –
60 | CAAGAA | 0.916 | 0.993 | 1.11 | – | – | –
61 | AGCACT | 1.31 | 1.42 | 1.48 | 1.36 | – | –
62 | GATTTA | 1.02 | 0.956 | 0.901 | 0.91 | – | –
63 | GCATCT | 0.954 | 1.06 | 0.927 | – | – | –

Row | Sequence | binding signal (ELK4) | binding signal (ETV4) | binding signal (ERG) | binding signal (ETV1) | binding signal (ELF1) | binding signal (ERF)
64 | TCTGGA | 0.954 | 1.06 | 1.04 | – | – | –
65 | GATCCC | 1.2 | 1.25 | 1.23 | – | – | –
66 | CACTCA | 1.17 | 1.16 | 1.16 | – | – | –
67 | AATCAG | 1.16 | 1.07 | 1.07 | – | – | –
68 | TTTAGT | 0.945 | 1.08 | 0.994 | 0.993 | – | –
69 | TTGGGC | 1.05 | 1.12 | 1.07 | – | – | –
70 | ATAAAG | 1.16 | 1.07 | 1.12 | 1.04 | – | –
71 | TGTCGC | 0.961 | 0.884 | 0.964 | 0.967 | – | –
72 | CATCAC | 1.29 | 1.26 | 1.15 | 1.1 | – | –
73 | ATACTC | 1.23 | 1.28 | 1.3 | – | – | –
74 | TGATCG | 1.13 | 1.07 | 0.99 | – | – | –
75 | ATCAAC | 1.14 | 1.13 | 1.07 | – | – | –
76 | AACCGA | 0.996 | 1.06 | 0.97 | 0.965 | – | –
77 | AGTTCT | 1.2 | 1.13 | 1.11 | – | – | –
78 | CACAAA | 0.991 | 1.05 | 1.12 | – | – | –
79 | ACCGCT | 1.18 | 1.04 | 1.1 | 0.999 | – | –
80 | GCGATT | 0.964 | 0.981 | 0.91 | 0.927 | 0.893 | 0.881
81 | CAAACG | 1.05 | 1.04 | 0.983 | 0.976 | – | –
82 | AGAATA | 1.02 | 0.986 | 0.98 | 0.948 | – | 1.03
83 | CATTGC | 1.04 | 1.07 | 1.11 | 0.987 | – | –
